Laboratory results reported in PMC7733318.
No constants are given. Whether binding was seen depends on the method and setting. For part of these data: In cells and extracts the contact can be indirect. Some results given as binding are weak or reduced against the parent protein; the word gives no strength.

Amino acid sequences for entries named in this document (tags omitted). Residues count along the entry.
UniProt Q13485: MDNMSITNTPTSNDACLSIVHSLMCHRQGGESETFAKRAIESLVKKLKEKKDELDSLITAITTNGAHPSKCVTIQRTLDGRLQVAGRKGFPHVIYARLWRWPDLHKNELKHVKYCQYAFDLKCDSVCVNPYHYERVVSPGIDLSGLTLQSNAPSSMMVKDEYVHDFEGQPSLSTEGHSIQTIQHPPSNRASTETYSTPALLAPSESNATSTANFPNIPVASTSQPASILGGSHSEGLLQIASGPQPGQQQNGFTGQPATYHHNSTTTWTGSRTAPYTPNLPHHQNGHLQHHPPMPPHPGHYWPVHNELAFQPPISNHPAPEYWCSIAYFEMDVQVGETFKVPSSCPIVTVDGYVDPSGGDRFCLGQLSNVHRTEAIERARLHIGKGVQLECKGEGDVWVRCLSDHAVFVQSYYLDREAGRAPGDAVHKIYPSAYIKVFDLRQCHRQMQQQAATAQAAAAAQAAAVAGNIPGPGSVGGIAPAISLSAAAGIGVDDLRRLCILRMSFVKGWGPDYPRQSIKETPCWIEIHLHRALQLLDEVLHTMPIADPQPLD
UniProt Q15796: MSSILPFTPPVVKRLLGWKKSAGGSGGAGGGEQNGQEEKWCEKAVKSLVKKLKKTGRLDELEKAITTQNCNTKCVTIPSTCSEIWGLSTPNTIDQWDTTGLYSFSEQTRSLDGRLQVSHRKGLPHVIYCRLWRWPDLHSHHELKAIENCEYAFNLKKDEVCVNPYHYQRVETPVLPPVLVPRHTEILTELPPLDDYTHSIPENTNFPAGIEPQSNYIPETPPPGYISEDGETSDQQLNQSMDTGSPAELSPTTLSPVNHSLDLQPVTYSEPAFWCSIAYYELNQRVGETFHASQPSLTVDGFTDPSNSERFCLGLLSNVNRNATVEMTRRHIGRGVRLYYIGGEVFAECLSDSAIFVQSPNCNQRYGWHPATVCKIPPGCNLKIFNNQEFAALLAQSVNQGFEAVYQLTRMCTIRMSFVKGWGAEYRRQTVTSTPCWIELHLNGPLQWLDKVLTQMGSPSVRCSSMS
UniProt P84022: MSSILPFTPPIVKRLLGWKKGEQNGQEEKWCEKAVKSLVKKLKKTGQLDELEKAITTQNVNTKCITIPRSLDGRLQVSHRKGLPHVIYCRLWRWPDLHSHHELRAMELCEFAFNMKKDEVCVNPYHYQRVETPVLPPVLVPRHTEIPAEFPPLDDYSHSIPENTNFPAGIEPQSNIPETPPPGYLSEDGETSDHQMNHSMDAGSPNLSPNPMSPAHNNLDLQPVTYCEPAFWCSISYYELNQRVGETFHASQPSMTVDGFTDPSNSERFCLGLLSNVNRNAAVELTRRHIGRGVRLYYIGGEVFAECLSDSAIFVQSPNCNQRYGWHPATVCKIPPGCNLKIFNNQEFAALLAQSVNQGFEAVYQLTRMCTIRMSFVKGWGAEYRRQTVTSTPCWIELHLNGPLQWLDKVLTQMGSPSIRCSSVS
UniProt Q00887, residues 35-426: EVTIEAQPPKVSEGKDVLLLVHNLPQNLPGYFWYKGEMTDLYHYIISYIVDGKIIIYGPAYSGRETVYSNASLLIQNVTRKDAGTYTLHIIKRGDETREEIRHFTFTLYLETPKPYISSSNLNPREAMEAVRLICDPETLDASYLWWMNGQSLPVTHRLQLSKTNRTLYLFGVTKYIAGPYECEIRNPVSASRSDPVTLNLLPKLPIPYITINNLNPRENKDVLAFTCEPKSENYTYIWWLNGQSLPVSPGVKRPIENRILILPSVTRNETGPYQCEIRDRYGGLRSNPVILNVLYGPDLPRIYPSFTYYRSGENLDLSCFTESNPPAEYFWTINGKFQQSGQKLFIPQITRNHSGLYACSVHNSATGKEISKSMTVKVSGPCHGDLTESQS

Legend:
GST-Smad4 = GST-Smad4 (UniProt Q13485); experiment: pull-down; GST pull-down with purified GST-Smad2/3/4 and His-PSG9; both purified
GST-Smad2 = GST-Smad2 (UniProt Q15796); experiment: as above
GST-Smad3 = GST-Smad3 (UniProt P84022); experiment: as above
Flag-Smad3 = Flag-Smad3 (UniProt P84022); experiment: co-IP; Flag-Smad2/3/4 and HA-PSG9 cotransfected into HEK293T cells; IP with an anti-Flag antibody, immunoblotting with the indicated antibodies
Flag-Smad2 = Flag-Smad2 (UniProt Q15796); experiment: as above
Flag-Smad4 = Flag-Smad4 (UniProt Q13485); experiment: as above

binding (GST-Smad4) | binding (GST-Smad2) | binding (GST-Smad3) | binding (Flag-Smad3) | binding (Flag-Smad2) | binding (Flag-Smad4) | Substance
binds | binds | binds | – | – | – | His-PSG9 (from UniProt Q00887 35-426)
– | – | – | binds | binds | binds | HA-PSG9 (pregnancy-specific glycoprotein 9) (from UniProt Q00887 35-426)
